Positions count from the first letter of the chain named. Names and notes keep the numbering of the source. No constants are given. Whether binding was seen depends on the method and setting. Binding seen in cells or lysates may run through a third protein. Some results given as binding are weak or reduced against the parent protein; the word gives no strength. Tags and fused reporters may be left off the sequences shown.
T1: HA-ADAM23 (UniProt O75077 287-832)
T1 construct: ADAM23 (A Disintegrin And Metalloprotease domain 23) receptor, cDNA; Expression of HA-ADAM23 in HEK293T was lower than that of HA-ADAM22; also called HA-tagged ADAM23; HA-fused ADAM23; source: COS7, co-transfected, on cells (immunofluorescence); HEK293T, co-transfected, in lysate (co-IP)
T1 sequence (looked up): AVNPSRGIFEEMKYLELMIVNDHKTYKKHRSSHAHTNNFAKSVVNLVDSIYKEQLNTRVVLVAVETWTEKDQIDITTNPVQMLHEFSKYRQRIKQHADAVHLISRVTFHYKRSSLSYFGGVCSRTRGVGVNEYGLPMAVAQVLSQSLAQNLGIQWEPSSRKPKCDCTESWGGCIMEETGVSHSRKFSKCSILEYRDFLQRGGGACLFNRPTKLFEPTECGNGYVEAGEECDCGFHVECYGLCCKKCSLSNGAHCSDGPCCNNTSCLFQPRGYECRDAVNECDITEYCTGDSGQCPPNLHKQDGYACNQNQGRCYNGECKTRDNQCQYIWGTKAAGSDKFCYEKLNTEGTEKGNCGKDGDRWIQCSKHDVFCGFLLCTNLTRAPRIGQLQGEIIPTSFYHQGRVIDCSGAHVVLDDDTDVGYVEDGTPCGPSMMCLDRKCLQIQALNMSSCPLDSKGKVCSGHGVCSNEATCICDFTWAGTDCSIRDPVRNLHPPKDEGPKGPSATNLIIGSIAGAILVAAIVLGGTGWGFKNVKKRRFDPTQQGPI

B1: wild type LGI1-Flag (leucine-rich, glioma-inactivated 1) (ligand, human, UniProt O95970 35-557, looked up)
chain: KKPAKPKCPAVCTCTKDNALCENARSIPRTVPPDVISLSFVRSGFTEISEGSFLFTPSLQLLLFTSNSFDVISDDAFIGLPHLEYLFIENNNIKSISRHTFRGLKSLIHLSLANNNLQTLPKDIFKGLDSLTNVDLRGNSFNCDCKLKWLVEWLGHTNATVEDIYCEGPPEYKKRKINSLSSKDFDCIITEFAKSQDLPYQSLSIDTFSYLNDEYVVIAQPFTGKCIFLEWDHVEKTFRNYDNITGTSTVVCKPIVIETQLYVIVAQLFGGSHIYKRDSFANKFIKIQDIEILKIRKPNDIETFKIENNWYFVVADSSKAGFTTIYKWNGNGFYSHQSLHAWYRDTDVEYLEIVRTPQTLRTPHLILSSSSQRPVIYQWNKATQLFTNQTDIPNMEDVYAVKHFSVKGDVYICLTRFIGDSKVMKWGGSSFQDIQRMPSRGSMVFQPLQINNYQYAILGSDYSFTQVYNWDAEKAKFVKFQELNVQAPRSFTHVSINKRNFLFASSFKGNTQIYKHVIVDLSA
notes: the protein has a signal peptide and is secreted; also called LGI1 wild type; WT; source: COS7, co-transfected with HA-ADAM22 or HA-ADAM23 (immunofluorescence); HEK293T, co-transfected, in lysate (co-IP)
B2: LGI1-R407C (Flag-tagged) (ligand, human, UniProt O95970 35-557, looked up)
chain: B1 chain with R373C
notes: LGI1 with the ADLTE-causing substitution R407C (c.1219C>T); secreted protein; also called c.1219C>T; source: COS7, co-transfected with HA-ADAM22 or HA-ADAM23 (immunofluorescence); HEK293T, co-transfected, in lysate (co-IP)
B3: LGI1-R474Q (Flag-tagged) (ligand, human, UniProt O95970 35-557, looked up)
chain: B1 chain with R440Q
notes: LGI1 with the ADLTE-causing substitution R474Q (c.1421G>A); secreted protein; also called c.1421G>A; source: COS7, co-transfected with HA-ADAM22 or HA-ADAM23 (immunofluorescence); HEK293T, co-transfected, in lysate (co-IP)
B4: LGI1-T380A (Flag-tagged) (ligand, UniProt O95970 35-557)
chain: B1 chain with T346A

Target: T1, HA-ADAM23
Experiment: co-IP; HEK293T cells co-transfected with LGI1-Flag (wild type or mutant) and HA-ADAM22 or HA-ADAM23; lysed 36 h after transfection (1% Tween 20); anti-HA antibody and Protein G sepharose, 4°C; washes with 250 mM NaCl; blots with anti-HA and anti-LGI1

Row | Binder | binding
1 | B1 | binds
2 | B2 | binds weakly
3 | B3 | binds weakly
4 | B4 | no binding
